Test results taken from article PMC10163345.
No constants are given. Whether binding was seen depends on the method and setting. Binding seen in cells or lysates may run through a third protein. These calls come from enrichment with a bait or labelling near it, and not all partners need be listed.

Biological target: miniTurbo–3×FLAG fused to WT CNAα (calcineurin catalytic subunit alpha, PPP3CA) (human) (UniProt Q08209)
Assay: proximity labelling; miniTurbo–3×FLAG–CNAα (WT or NIRmut) stably expressed in HEK293 Flp-In T-REx cells; 50 μM biotin for 15 min at 37°C; asynchronous, G1/S or mitotic cells; streptavidin purification, mass spectrometry (DDA and DIA), SAINT against miniTurbo–3×FLAG alone, BFDR≤0.01

B1: PHKA1 (protein, UniProt P46020 1-1223)
chain: MRSRSNSGVRLDGYARLVQQTILCHQNPVTGLLPASYDQKDAWVRDNVYSILAVWGLGLAYRKNADRDEDKAKAYELEQSVVKLMRGLLHCMIRQVDKVESFKYSQSTKDSLHAKYNTKTCATVVGDDQWGHLQLDATSVYLLFLAQMTASGLHIIHSLDEVNFIQNLVFYIEAAYKTADFGIWERGDKTNQGISELNASSVGMAKAALEALDELDLFGVKGGPQSVIHVLADEVQHCQSILNSLLPRASTSKEVDASLLSVVSFPAFAVEDSQLVELTKQEIITKLQGRYGCCRFLRDGYKTPKEDPNRLYYEPAELKLFENIECEWPLFWTYFILDGVFSGNAEQVQEYKEALEAVLIKGKNGVPLLPELYSVPPDRVDEEYQNPHTVDRVPMGKLPHMWGQSLYILGSLMAEGFLAPGEIDPLNRRFSTVPKPDVVVQVSILAETEEIKTILKDKGIYVETIAEVYPIRVQPARILSHIYSSLGCNNRMKLSGRPYRHMGVLGTSKLYDIRKTIFTFTPQFIDQQQFYLALDNKMIVEMLRTDLSYLCSRWRMTGQPTITFPISHSMLDEDGTSLNSSILAALRKMQDGYFGGARVQTGKLSEFLTTSCCTHLSFMDPGPEGKLYSEDYDDNYDYLESGNWMNDYDSTSHARCGDEVARYLDHLLAHTAPHPKLAPTSQKGGLDRFQAAVQTTCDLMSLVTKAKELHVQNVHMYLPTKLFQASRPSFNLLDSPHPRQENQVPSVRVEIHLPRDQSGEVDFKALVLQLKETSSLQEQADILYMLYTMKGPDWNTELYNERSATVRELLTELYGKVGEIRHWGLIRYISGILRKKVEALDEACTDLLSHQKHLTVGLPPEPREKTISAPLPYEALTQLIDEASEGDMSISILTQEIMVYLAMYMRTQPGLFAEMFRLRIGLIIQVMATELAHSLRCSAEEATEGLMNLSPSAMKNLLHHILSGKEFGVERSVRPTDSNVSPAISIHEIGAVGATKTERTGIMQLKSEIKQVEFRRLSISAESQSPGTSMTPSSGSFPSAYDQQSSKDSRQGQWQRRRRLDGALNRVPVGFYQKVWKVLQKCHGLSVEGFVLPSSTTREMTPGEIKFSVHVESVLNRVPQPEYRQLLVEAILVLTMLADIEIHSIGSIIAVEKIVHIANDLFLQEQKTLGADDTMLAKDPASGICTLLYDSAPSGRFGTMTYLSKAAATYVQEFLPHSICAMQ
- binding: binds
